# Measurements from patent US10765729B2, “Tumor antigen peptide” (Sapporo Medical University, priority 2014, dated 2020).
# Not every detail of the peptide structures is certain; ends, links or a residue may be inferred. Where no end group is shown, it is not given here.
# Tested on: T2-A24 cells
# Assay: IFN-γ ELISPOT assay of peptide-induced CTLs with peptide-pulsed T2-A24 cells
# Assay type: cell-based, human
# Conditions: T2-A24 cells pulsed with 20 μg/mL peptide; CTLs induced with IV9 from HLA-A24-positive PBMC; FIG. 9
sequence,measurement,value
IYPPQFHKV [SEQ ID No. 3],IFNγ spot,an IFNγ spot was detected
